# According to patent US20170176440A1, “METHODS AND COMPOSITIONS FOR EVALUATING BREAST CANCER PATIENTS” (THE BOARD OF REGENTS OF THE UNIVERSITY OF TEXAS SYSTEM, priority 2014, published 2017):
# Protein sequences, listed by entry. Tags and fused reporters are not part of them. Lines headed by an entry give the natural chain unless they say otherwise; changes in a name come on top.
# UniProt Q92731: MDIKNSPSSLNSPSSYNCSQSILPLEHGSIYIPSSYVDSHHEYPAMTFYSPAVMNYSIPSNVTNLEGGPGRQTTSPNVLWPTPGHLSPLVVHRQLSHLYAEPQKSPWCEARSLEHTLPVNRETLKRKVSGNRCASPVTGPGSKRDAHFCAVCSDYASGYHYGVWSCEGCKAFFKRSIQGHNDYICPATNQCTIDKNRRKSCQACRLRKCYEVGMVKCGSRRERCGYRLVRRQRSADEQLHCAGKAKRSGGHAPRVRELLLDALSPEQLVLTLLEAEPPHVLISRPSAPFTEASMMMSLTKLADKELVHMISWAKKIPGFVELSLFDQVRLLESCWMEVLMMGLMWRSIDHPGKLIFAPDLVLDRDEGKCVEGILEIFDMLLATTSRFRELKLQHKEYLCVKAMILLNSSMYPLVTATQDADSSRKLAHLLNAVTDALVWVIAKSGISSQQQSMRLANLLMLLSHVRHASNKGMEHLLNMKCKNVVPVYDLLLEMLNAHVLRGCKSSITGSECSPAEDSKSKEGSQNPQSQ
# UniProt P00519: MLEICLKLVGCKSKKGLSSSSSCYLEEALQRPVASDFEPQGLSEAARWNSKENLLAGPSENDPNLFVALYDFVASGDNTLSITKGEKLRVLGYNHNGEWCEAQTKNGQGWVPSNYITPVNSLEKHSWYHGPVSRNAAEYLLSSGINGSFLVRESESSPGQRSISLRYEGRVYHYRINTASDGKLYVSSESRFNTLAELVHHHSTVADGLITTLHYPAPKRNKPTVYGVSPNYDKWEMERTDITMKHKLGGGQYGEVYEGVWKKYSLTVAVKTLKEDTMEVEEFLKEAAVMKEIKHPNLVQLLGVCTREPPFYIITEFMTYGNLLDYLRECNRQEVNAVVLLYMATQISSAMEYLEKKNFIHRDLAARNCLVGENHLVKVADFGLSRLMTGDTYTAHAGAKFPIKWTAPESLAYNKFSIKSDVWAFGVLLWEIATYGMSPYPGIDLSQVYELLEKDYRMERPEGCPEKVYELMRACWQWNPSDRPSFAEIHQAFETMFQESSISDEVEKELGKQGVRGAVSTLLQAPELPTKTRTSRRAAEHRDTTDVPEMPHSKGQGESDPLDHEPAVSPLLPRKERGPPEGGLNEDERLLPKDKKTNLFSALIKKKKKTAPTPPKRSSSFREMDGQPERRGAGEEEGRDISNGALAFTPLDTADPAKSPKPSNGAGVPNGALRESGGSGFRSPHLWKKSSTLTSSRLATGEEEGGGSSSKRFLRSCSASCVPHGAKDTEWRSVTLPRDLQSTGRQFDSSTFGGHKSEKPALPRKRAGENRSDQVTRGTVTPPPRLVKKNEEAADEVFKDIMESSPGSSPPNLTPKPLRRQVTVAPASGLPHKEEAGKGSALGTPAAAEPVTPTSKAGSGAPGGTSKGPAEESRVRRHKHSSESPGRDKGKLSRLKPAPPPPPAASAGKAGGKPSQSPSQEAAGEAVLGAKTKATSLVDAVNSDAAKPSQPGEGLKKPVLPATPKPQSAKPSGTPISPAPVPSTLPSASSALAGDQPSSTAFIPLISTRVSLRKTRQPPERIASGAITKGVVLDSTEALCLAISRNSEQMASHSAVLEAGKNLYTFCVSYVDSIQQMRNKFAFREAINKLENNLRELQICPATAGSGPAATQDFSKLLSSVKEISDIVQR
# These are yes or no findings as the source states them, for the method shown. For some of these results: Binding seen in cells or lysates may run through a third protein. Some binding calls cover weakened binding; strength is not graded here. For some of these results: Sequences can lack the tags named with a protein.
# B1: EYA2 (enzyme, human, UniProt O00167 1-538, looked up)
# chain: MVELVISPSLTVNSDCLDKLKFNRADAAVWTLSDRQGITKSAPLRVSQLFSRSCPRVLPRQPSTAMAAYGQTQYSAGIQQATPYTAYPPPAQAYGIPSYSIKTEDSLNHSPGQSGFLSYGSSFSTSPTGQSPYTYQMHGTTGFYQGGNGLGNAAGFGSVHQDYPSYPGFPQSQYPQYYGSSYNPPYVPASSICPSPLSTSTYVLQEASHNVPNQSSESLAGEYNTHNGPSTPAKEGDTDRPHRASDGKLRGRSKRSSDPSPAGDNEIERVFVWDLDETIIIFHSLLTGTFASRYGKDTTTSVRIGLMMEEMIFNLADTHLFFNDLEDCDQIHVDDVSSDDNGQDLSTYNFSADGFHSSAPGANLCLGSGVHGGVDWMRKLAFRYRRVKEMYNTYKNNVGGLIGTPKRETWLQLRAELEALTDLWLTHSLKALNLINSRPNCVNVLVTTTQLIPALAKVLLYGLGSVFPIENIYSATKTGKESCFERIMQRFGRKAVYVVIGDGVEEEQGAKKHNMPFWRISCHADLEALRHALELEYL
# B2: GST-EYA2 (enzyme, human, UniProt O00167 1-538, looked up, not shown: a dimerising Fc or GST)
# chain: MVELVISPSLTVNSDCLDKLKFNRADAAVWTLSDRQGITKSAPLRVSQLFSRSCPRVLPRQPSTAMAAYGQTQYSAGIQQATPYTAYPPPAQAYGIPSYSIKTEDSLNHSPGQSGFLSYGSSFSTSPTGQSPYTYQMHGTTGFYQGGNGLGNAAGFGSVHQDYPSYPGFPQSQYPQYYGSSYNPPYVPASSICPSPLSTSTYVLQEASHNVPNQSSESLAGEYNTHNGPSTPAKEGDTDRPHRASDGKLRGRSKRSSDPSPAGDNEIERVFVWDLDETIIIFHSLLTGTFASRYGKDTTTSVRIGLMMEEMIFNLADTHLFFNDLEDCDQIHVDDVSSDDNGQDLSTYNFSADGFHSSAPGANLCLGSGVHGGVDWMRKLAFRYRRVKEMYNTYKNNVGGLIGTPKRETWLQLRAELEALTDLWLTHSLKALNLINSRPNCVNVLVTTTQLIPALAKVLLYGLGSVFPIENIYSATKTGKESCFERIMQRFGRKAVYVVIGDGVEEEQGAKKHNMPFWRISCHADLEALRHALELEYL
# Tests used:
# [1] = molecular target: estrogen receptor beta (ERβ) (human) (UniProt Q92731); test: IP of c-Abl with ERβ immunoblot, and reciprocal co-IP, in MDA-MB-231 cells
# [2] = molecular target: estrogen receptor beta (ERβ) (human) (UniProt Q92731); test: reciprocal co-IP of endogenous proteins in MDA-MB-231 cells
# Flag-ERβ (WT) (human) [3] = molecular target: Flag-ERβ (WT) (human) (UniProt Q92731); test: IP of Flag-ERβ from HEK293T cells, anti-c-Abl immunoblot
# Flag-ERβ (WT) (human) [4] = molecular target: Flag-ERβ (WT) (human) (UniProt Q92731); test: co-IP of ectopic c-Abl with Flag-ERβ in HEK293T cells
# [5] = molecular target: ERβ AF1 (amino acid 1-148) (human) (UniProt Q92731); test: yeast two-hybrid screen, ERβ AF1 (1-148) as bait, human mammary cDNA prey library
# [6] = molecular target: estrogen receptor beta (ERβ) (human) (UniProt Q92731); test: co-IP of endogenous proteins in MCF7 cells; detectable without ligand, enhanced by E2
# [7] = molecular target: estrogen receptor beta (ERβ) (human) (UniProt Q92731); test: GST-EYA2 pull-down of in vitro translated ERβ; detectable without ligand, enhanced by DPN
molecule,measurement,setting,value
c-Abl (from UniProt P00519 1-1130) (enzyme),binding,[1],binds
same,binding,[2],binds
"WT c-Abl (ectopic, co-expressed with Flag-ERβ in HEK293T cells) (from UniProt P00519 1-1130) (enzyme)",binding,Flag-ERβ (WT) (human) [3],binds
same,binding,Flag-ERβ (WT) (human) [4],binds
B1,binding,[5],binds
same,binding,[6],binds
B2,binding,[7],binds
